Some of the results follow. Many values rest on one well or one pass, so single values are uncertain.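 Imaging used 1,536-well plates; nuclei positive for cleaved PARP by antibody were divided by total DNA-stained nuclei to yield the apoptosis fraction. Doses for screening kept most cells viable, and cell lines differ markedly in resting and induced cleaved-PARP levels.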
System: A101D
Assay: cleaved PARP positive nuclei fraction relative to DMSO control; melanoma cells; higher = more apoptosis
Conditions: library dose: low library concentration; 72 h

Point of comparison: `CCN(CC)CCCCNc1ncc2cc(-c3cc(OC)cc(OC)c3)c(NC(=O)NC(C)(C)C)nc2n1` + Cn1cc(/C=C2\C(=O)Nc3cccnc32)c2ccccc21 [GW441756] (first compound 0.1 µM, partner dose 0.4 µM), “cleaved PARP positive nuclei fraction” value 103%. Against it:
- CN(NC(=O)CC(=O)NN(C)C(=S)c1ccccc1)C(=S)c1ccccc1 + CCCCCCCCCCCC1=C(O)C(=O)C=C(O)C1=O [Embelin] (first compound 0.006 µM, partner dose 1.2 µM) — higher, 122%
- COc1ccc2c(c1)CCC1C2CCC2(C)C(NCCCCCCN3C(=O)C=CC3=O)CCC12 (stereo unspecified) + O=c1cc(-c2cccc3c2Sc2ccccc2S3)oc(N2CCOCC2)c1 [KU55933] (first compound 0.4 µM, partner dose 1 µM) — higher, 155%
- COc1ccc2c(c1)CCC1C2CCC2(C)C(NCCCCCCN3C(=O)C=CC3=O)CCC12 (stereo unspecified) + Oc1nc(-c2ccc(C(F)(F)F)cc2)nc2c1CSCC2 [XAV939] (first compound 0.4 µM, partner dose 2 µM) — higher, 121%
- O=C(O)c1ccc(-c2c[nH]c3ncc(-c4ccccc4)cc23)cc1C1CCCC1 + COc1ccc2c(c1)CCC1C2CCC2(C)C(NCCCCCCN3C(=O)C=CC3=O)CCC12 [U73122] (first compound 0.16 µM, partner dose 0.4 µM) — lower, 38.3%
- CCc1ccc(CCOc2ccc(CC3SC(=O)NC3=O)cc2)nc1 (stereo unspecified) [pioglitazone] + Oc1nc(-c2ccc(C(F)(F)F)cc2)nc2c1CSCC2 [XAV939] (first compound 2 µM, partner dose 2 µM) — higher, 318%
- COc1cc2c(Oc3ccc4[nH]c(C)cc4c3F)ncnc2cc1OCCCN1CCCC1 [cediranib] + COc1cc2ncnc(Nc3ccc(Oc4ccccc4)cc3)c2cc1OC [SrcI1] (first compound 0.4 µM, partner dose 2 µM) — higher, 193%
- N#Cc1c(O)c2c(-c3ccc(-c4ccccc4O)cc3)csc2[nH]c1=O + COc1cc2ncnc(Nc3ccc(Oc4ccccc4)cc3)c2cc1OC [SrcI1] (first compound 2 µM, partner dose 2 µM) — lower, 92.9%
- CN(NC(=O)CC(=O)NN(C)C(=S)c1ccccc1)C(=S)c1ccccc1 + CC(C)CCN1c2nc(Nc3cc(F)c(O)c(F)c3)ncc2N(C)C(=O)C1C [BID1870] (first compound 0.006 µM, partner dose 0.2 µM) — higher, 150%
- CCc1ccc(CCOc2ccc(CC3SC(=O)NC3=O)cc2)nc1 (stereo unspecified) [pioglitazone] + N#Cc1c(O)c2c(-c3ccc(-c4ccccc4O)cc3)csc2[nH]c1=O [A769662] (first compound 2 µM, partner dose 2 µM) — lower, 53.2%
- Oc1nc(-c2ccc(C(F)(F)F)cc2)nc2c1CSCC2 + CCCCCCCCCCCC1=C(O)C(=O)C=C(O)C1=O [Embelin] (first compound 2 µM, partner dose 1.2 µM) — higher, 428%
- CCc1ccc(CCOc2ccc(CC3SC(=O)NC3=O)cc2)nc1 (stereo unspecified) [pioglitazone] + Cn1cc(/C=C2\C(=O)Nc3cccnc32)c2ccccc21 [GW441756] (first compound 2 µM, partner dose 0.4 µM) — higher, 127%
- COc1ccc(COc2ccc(Cc3cnc(N)nc3N)cc2OC)cc1 + COc1cc2ncnc(Nc3ccc(Oc4ccccc4)cc3)c2cc1OC [SrcI1] (first compound 1 µM, partner dose 2 µM) — lower, 72.6%
- O=S(=O)(c1ccccc1)N(CC(F)(F)F)c1ccc(C(O)(C(F)(F)F)C(F)(F)F)cc1 + COc1cc2ncnc(Nc3ccc(Oc4ccccc4)cc3)c2cc1OC [SrcI1] (first compound 1.4 µM, partner dose 2 µM) — higher, 285%
- COc1ccc2c(c1)CCC1C2CCC2(C)C(NCCCCCCN3C(=O)C=CC3=O)CCC12 (stereo unspecified) + Cn1cc(/C=C2\C(=O)Nc3cccnc32)c2ccccc21 [GW441756] (first compound 0.4 µM, partner dose 0.4 µM) — higher, 104%
- CN(NC(=O)CC(=O)NN(C)C(=S)c1ccccc1)C(=S)c1ccccc1 + Cc1cc([N+](=O)[O-])ccc1NS(=O)(=O)c1cc(Cl)ccc1Cl [FH535] (first compound 0.006 µM, partner dose 1 µM) — higher, 167%
- N#Cc1c(O)c2c(-c3ccc(-c4ccccc4O)cc3)csc2[nH]c1=O + c1cc(-c2cnn3cc(-c4ccc(OCCN5CCCCC5)cc4)cnc23)ccn1 [Dorsomorphin] (first compound 2 µM, partner dose 0.4 µM) — lower, 98.8%
- CCc1ccc(CCOc2ccc(CC3SC(=O)NC3=O)cc2)nc1 (stereo unspecified) [pioglitazone] + COc1ccc(COc2ccc(Cc3cnc(N)nc3N)cc2OC)cc1 [GW2580] (first compound 2 µM, partner dose 1 µM) — higher, 113%
- COc1cc2c(Oc3ccc4[nH]c(C)cc4c3F)ncnc2cc1OCCCN1CCCC1 [cediranib] + CCc1ccc(CCOc2ccc(CC3SC(=O)NC3=O)cc2)nc1 [pioglitazone] (first compound 0.4 µM, partner dose 2 µM) — lower, 54.3%
- COc1ccc(-c2ccc3c(N4CCOCC4)nc(N4C[C@@H](C)O[C@@H](C)C4)nc3n2)cc1CO + COc1cc2ncnc(Nc3ccc(Oc4ccccc4)cc3)c2cc1OC [SrcI1] (first compound 0.02 µM, partner dose 2 µM) — higher, 199%
- O=C(O)c1ccc(-c2c[nH]c3ncc(-c4ccccc4)cc23)cc1C1CCCC1 + O=S(=O)(c1ccccc1)N(CC(F)(F)F)c1ccc(C(O)(C(F)(F)F)C(F)(F)F)cc1 [T0901317] (first compound 0.16 µM, partner dose 1.4 µM) — higher, 225%
- COc1ccc(-c2ccc3c(N4CCOCC4)nc(N4C[C@@H](C)O[C@@H](C)C4)nc3n2)cc1CO + CCN(CC)CCCCNc1ncc2cc(-c3cc(OC)cc(OC)c3)c(NC(=O)NC(C)(C)C)nc2n1 [PD173074] (first compound 0.02 µM, partner dose 0.1 µM) — lower, 52.9%
- Oc1cc(-c2nc(-c3ccccc3)[nH]c2-c2ccncc2)ccc1Cl + O=C1NC(=O)/C(=C/c2ccc(-c3ccc(F)cc3O)o2)S1 [AS252424] (first compound 0.2 µM, partner dose 1 µM) — higher, 164%
- CCc1ccc(CCOc2ccc(CC3SC(=O)NC3=O)cc2)nc1 (stereo unspecified) [pioglitazone] + O=C(Nc1ccccc1)c1cc([N+](=O)[O-])ccc1Cl [GW9662] (first compound 2 µM, partner dose 2 µM) — higher, 129%
- COc1ccc2c(c1)CCC1C2CCC2(C)C(NCCCCCCN3C(=O)C=CC3=O)CCC12 (stereo unspecified) + O=C(O)C(=O)Nc1sc2c(c1C(=O)O)CCNC2 [TCS401] (first compound 0.4 µM, partner dose 1.66667 µM) — higher, 179%
- CN(C)S(=O)(=O)c1ccc2c(c1)/C(=C/c1cc3c([nH]1)CCCC3)C(=O)N2 + COc1cc(N2CCC(N3CCN(C)CC3)CC2)ccc1Nc1ncc(Cl)c(Nc2ccccc2S(=O)(=O)C(C)C)n1 [NVP-TAE684] (first compound 0.4 µM, partner dose 0.08 µM) — lower, 80.3%
- CN(C)S(=O)(=O)c1ccc2c(c1)/C(=C/c1cc3c([nH]1)CCCC3)C(=O)N2 + N#Cc1c(O)c2c(-c3ccc(-c4ccccc4O)cc3)csc2[nH]c1=O [A769662] (first compound 0.4 µM, partner dose 2 µM) — lower, 49%
- COc1ccc2c(c1)CCC1C2CCC2(C)C(NCCCCCCN3C(=O)C=CC3=O)CCC12 (stereo unspecified) + CC(C)CCN1c2nc(Nc3cc(F)c(O)c(F)c3)ncc2N(C)C(=O)C1C [BID1870] (first compound 0.4 µM, partner dose 0.2 µM) — higher, 127%
- CCc1ccc(CCOc2ccc(CC3SC(=O)NC3=O)cc2)nc1 (stereo unspecified) [pioglitazone] + Oc1cc(-c2nc(-c3ccccc3)[nH]c2-c2ccncc2)ccc1Cl [L779450] (first compound 2 µM, partner dose 0.2 µM) — higher, 106%
- CCc1ccc(CCOc2ccc(CC3SC(=O)NC3=O)cc2)nc1 (stereo unspecified) [pioglitazone] + CC(C)CCN1c2nc(Nc3cc(F)c(O)c(F)c3)ncc2N(C)C(=O)C1C [BID1870] (first compound 2 µM, partner dose 0.2 µM) — higher, 195%
- CN(NC(=O)CC(=O)NN(C)C(=S)c1ccccc1)C(=S)c1ccccc1 + O=c1cc(-c2cccc3c2Sc2ccccc2S3)oc(N2CCOCC2)c1 [KU55933] (first compound 0.006 µM, partner dose 1 µM) — higher, 265%
- O=C(O)c1ccc(-c2c[nH]c3ncc(-c4ccccc4)cc23)cc1C1CCCC1 + Oc1nc(-c2ccc(C(F)(F)F)cc2)nc2c1CSCC2 [XAV939] (first compound 0.16 µM, partner dose 2 µM) — lower, 71.3%
- COc1ccc(COc2ccc(Cc3cnc(N)nc3N)cc2OC)cc1 + COc1cc(N2CCC(N3CCN(C)CC3)CC2)ccc1Nc1ncc(Cl)c(Nc2ccccc2S(=O)(=O)C(C)C)n1 [NVP-TAE684] (first compound 1 µM, partner dose 0.08 µM) — lower, 52.8%
- COc1ccc2c(c1)CCC1C2CCC2(C)C(NCCCCCCN3C(=O)C=CC3=O)CCC12 (stereo unspecified) + c1cc(-c2cnn3cc(-c4ccc(OCCN5CCCCC5)cc4)cnc23)ccn1 [Dorsomorphin] (first compound 0.4 µM, partner dose 0.4 µM) — higher, 196%
- NCC(=O)Nc1ccc(-n2nc(C(F)(F)F)cc2-c2ccc3c(ccc4ccccc43)c2)cc1 + COc1ccc(COc2ccc(Cc3cnc(N)nc3N)cc2OC)cc1 [GW2580] (first compound 1 µM, partner dose 1 µM) — higher, 171%
- COc1cc2ncnc(Nc3ccc(Oc4ccccc4)cc3)c2cc1OC + COc1cc(N2CCC(N3CCN(C)CC3)CC2)ccc1Nc1ncc(Cl)c(Nc2ccccc2S(=O)(=O)C(C)C)n1 [NVP-TAE684] (first compound 2 µM, partner dose 0.08 µM) — lower, 97.9%

Source: the supplement of paper PMC4604168 (melanoma cell lines)
